No constants are given. Whether binding was seen depends on the method and setting. In cells and extracts the contact can be indirect. Binding can be weak; no strength is given.

Protein sequences, listed by entry. Tags and fused reporters are not part of them. Lines headed by an entry give the natural chain unless they say otherwise; changes in a name come on top.
UniProt A0A3S5H4X0: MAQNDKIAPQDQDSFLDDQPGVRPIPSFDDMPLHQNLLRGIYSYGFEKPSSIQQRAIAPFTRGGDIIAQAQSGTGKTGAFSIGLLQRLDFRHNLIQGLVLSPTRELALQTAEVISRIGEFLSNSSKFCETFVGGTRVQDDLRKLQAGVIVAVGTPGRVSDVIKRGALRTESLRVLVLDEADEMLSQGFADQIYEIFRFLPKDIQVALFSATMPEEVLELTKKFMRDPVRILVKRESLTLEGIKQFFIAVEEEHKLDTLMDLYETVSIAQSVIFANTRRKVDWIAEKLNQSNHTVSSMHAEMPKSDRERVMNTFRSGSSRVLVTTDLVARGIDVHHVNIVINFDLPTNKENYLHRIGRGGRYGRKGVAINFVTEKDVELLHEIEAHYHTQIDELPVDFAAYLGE

Results on one substance are retold here after article PMC8939790.

In this experiment the target is GST-tagged Leishmania donovani profilin (Leishmania donovani). The experiment is described as follows: pull-down; purified GST-LdPfn or GST alone on glutathione-Sepharose beads with L. donovani promastigote lysate; input, unbound, wash and eluate fractions blotted with anti-eIF4A1 antibodies; only the target purified.

As for “Eukaryotic initiation factor 4A-1 (from UniProt A0A3S5H4X0)”, the binding result is on record as “binds”.
